# PubChem BioAssay AID504444 (National Center for Advancing Translational Sciences (NCATS), 2011)
# Where “and” joins values, the source holds several entries; their conditions need not be identical. Identical values can stand only once. Screen size: about 360,000 compounds; about 7,500 (2.1%) were called active. Inconclusive results, whose numbers are uncertain, are shown with a selection of clear calls. Calls follow the shape of the dose curve; as a rule, active = well fitted inhibition curve with a large enough effect; inconclusive = small, poorly fitted or top-dose-only effect, or effect the other way; inactive = flat fitted curve, though single readings scatter. Where the call is inconclusive, the potency comes from a doubtful curve fit.
# Experiment: Nrf2 qHTS screen for inhibitors; also: nearly all actives have a fitted effect of over 60% in size
# Settings: A549 ARE-Fluc reporter, luciferase luminescence, 18-24 h; activity change, negative = inhibition: at 46 µM (top of the series)
# Method in brief: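 Quantitative HTS in A549 cells stably bearing an antioxidant response element-firefly luciferase construct. Inhibition of Nrf2-driven transcription was scored by luminescence after 18-24 h of compound exposure at 37 °C.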
# % is scaled to controls: 0 for no effect and ±100 for the full control effect; potency is read from the fitted curve at half-maximal effect.
Structure (SMILES),Potency,"activity change, negative = inhibition"
CC(C)(C)OC(=O)N1O[C@H]2C[C@@H]1[C@@H]1[C@@H]2N=NN1C12CC3CC(CC(C3)C1)C2,"inconclusive: 25.9 µM [activator, partial curve]",
O=C(Nn1cc(C(=O)N2CCN(c3ccccc3F)CC2)c2ccccc2c1=O)c1cnccn1,"inconclusive: 29.1 µM [falling, single point]",
CSc1nnc(NC(=O)c2nc(S(=O)(=O)Cc3ccccc3F)ncc2Cl)s1,"inconclusive: 29.1 µM [falling, single point]",
COc1ccc(Cc2nnc(NC(=O)c3cccs3)s2)cc1,"inconclusive: 6.51 µM [activator, single point]",
COc1cccc(CNC(=O)c2ccc3c(c2)nnn3C2CCCC2)c1,"inconclusive: 20.6 µM [activator, partial curve, poor fit]",
O=S(=O)(NCCOCCNS(=O)(=O)c1ccccc1)c1ccccc1,"inconclusive: 6.51 µM [falling, full curve]",
Cc1ccc(-n2cc(-c3ccccc3)nc2S(=O)(=O)CC(=O)Nc2ccc(F)cc2)cc1,"inconclusive: 6.51 µM [activator, single point]",
Cc1ccc(-c2cc(C(F)(F)F)c(C#N)c(=O)[nH]2)cc1,"inconclusive: 18.4 µM [falling, single point]",
O=C(O)CCCN1C(=O)/C(=C\C(Cl)=C\c2ccccc2)SC1=S,"inconclusive: 16.4 µM [falling, partial curve, poor fit]",
Oc1cc(Cl)cc(Cl)c1Cl,,inactive: 3.09%
Cc1cc2cc(C(c3nnnn3Cc3ccco3)N3CCc4ccccc43)c(=O)[nH]c2cc1C (centres undefined),"inconclusive: 18.4 µM [falling, partial curve]",
COC(=O)c1cc2c(ccn2-c2ccc(F)cc2)n1Cc1ccc(OC)cc1,"inconclusive: 23.1 µM [activator, partial curve, poor fit]",
O=C(NCC(c1ccco1)N1CCCCC1)c1ccc(COc2ccc(Cl)cc2)cc1 (centres undefined),"inconclusive: 29.1 µM [falling, single point]",
O=C(OC[C@@H]1CCCN2CCCC[C@H]12)c1cc2ccccc2oc1=O,,inactive: -18.4%
CCCCN(CCCNc1ncnc2nc[nH]c12)c1ccccc1,"inconclusive: 11.6 µM [falling, partial curve, poor fit]",
O=C(NCCCN1CCOCC1)C(=O)N/N=C/c1c2ccccc2cc2ccccc12,"inconclusive: 20.6 µM [falling, single point]",
COC(=O)c1ccc(C(=O)N2CCCC(Nc3ccc(C(C)C)cc3)C2)cc1 (centres undefined),"inconclusive: 25.9 µM [falling, partial curve]",
Cc1ccc(C)c(OCC(=O)NCC2COc3ccccc3O2)c1 (centres undefined),"inconclusive: 29.1 µM [falling, single point]",
O=c1c2ccccc2ncn1CCCSc1ccccc1,active: 23.1 µM,
Cc1cc(=O)[nH]c(Nc2cccc(C(F)(F)F)c2)n1,"inconclusive: 16.4 µM [falling, single point]",
Oc1[nH]c2ccccc2c1N=NC(=S)NCCc1ccccc1,"inconclusive: 11.6 µM [falling, partial curve, poor fit]",
Cc1ccc(-c2nc(N/N=C/c3ccncc3)c3ccccc3n2)cc1,"inconclusive: 29.1 µM [falling, single point]",

Structure (SMILES),Potency,"activity change, negative = inhibition"
O=C(O)CC1(CC(=O)Nc2ccc3sccc3c2)CCCCC1,,inactive: -4.44%
CN(C)CCCNC(=O)CCc1ncc(C(F)(F)F)cc1Cl,,inactive: -6.24%
COc1ccc2c(c1)CCC1=C2NC(=S)NC1c1ccc(N(C)C)cc1 (centres undefined),"inconclusive: 23.1 µM [falling, single point]",
Cc1ccc(C)c2[nH]c(=O)c(CN(Cc3nnnn3C3CCCCC3)CC3CCCO3)cc12 (centres undefined),"inconclusive: 29.1 µM [falling, single point]",
CN(C)S(=O)(=O)c1ccc(Cl)c(NC(=O)CN2C(=O)NC(C)(C3CC3)C2=O)c1 (centres undefined),"inconclusive: 2.06 µM [falling, partial curve, poor fit]",
COc1ccc(C)cc1NC(=O)Cn1c(=O)cc(C)c2c(C)nn(C)c21,active: 5.8 µM,
Cc1ccc(CN2CCN(C3CCN(C(=O)c4ccccc4)CC3)C(=O)C2=O)cc1,"inconclusive: 20.6 µM [activator, partial curve, poor fit]",
COc1ccc(CN(Cc2ccccc2)C(=O)c2ccc(O)cc2)cc1COc1ccc(NC(C)=O)cc1,"inconclusive: 32.6 µM [falling, single point]",
Cc1ccc(NC(=O)[C@@H]2CCCN2C(=O)c2cccs2)cc1S(=O)(=O)N1CCCCC1,"inconclusive: 32.6 µM [falling, single point]",
Cc1ccc2nc(-c3ccc(NS(=O)(=O)c4c(C)n(C)c(=O)n(C)c4=O)cc3)sc2c1,"inconclusive: 0.731 µM [activator, partial curve, poor fit]",
O=C(Nc1cccc(Cl)c1)c1ccc(S(=O)(=O)NCC2CCCO2)cc1 (centres undefined),active: 4.61 µM,
CC(C)(C)OC(=O)N1CCCC1C(=O)NC1COC2CC(n3cc(F)c(=O)[nH]c3=O)OC12 (centres undefined),,inactive: 19.5%
COc1ccc(CCN2CCCC(CN(C)C(=O)c3ccoc3C)C2)cc1 (centres undefined),,inactive: -1.11%
COc1ccc(S(=O)(=O)N2CCOCC2)cc1NC(=O)CC1CC2CCC1C2 (centres undefined),"inconclusive: 32.6 µM [falling, single point]",
O=C(NCc1ccco1)c1ccc(Cn2c(=S)[nH]c3ccccc3c2=O)cc1,"inconclusive: 25.9 µM [falling, single point]",
CC1=C(C(=O)Nc2ccc(C)cc2C)C(C(C)C)n2nc(SCc3ccccc3Cl)nc2N1 (centres undefined),,inactive: -3.68%
COc1nnc(-c2ccc(N3CCCCC3)c(NC(C)=O)c2)c2ccccc12,"inconclusive: 14.6 µM [falling, single point]",
O=C(Nc1ccc(Oc2cccnc2)cc1)c1ccc([N+](=O)[O-])cc1,,inactive: 14.9%
Cc1cc(Br)ccc1SCC(=O)OC/C(O)=C(\C#N)c1nc2ccccc2[nH]1,"inconclusive: 25.9 µM [falling, single point]",
CC(Sc1ccc(S(=O)(=O)N2CCOCC2)cn1)c1ccccc1Cl (centres undefined),"inconclusive: 20.6 µM [falling, single point]",
Cc1nccc(-c2cccc(N/N=C(\C#N)C(=O)c3ccccc3)c2)n1,"inconclusive: 20.6 µM [falling, partial curve]",
O=C(CSc1ccccc1)Nc1ccccc1C(=O)O,"inconclusive: 18.4 µM [activator, single point]",

Structure (SMILES),Potency,"activity change, negative = inhibition"
COc1cc2cc(C(=O)N3CCN(Cc4ccc5c(c4)OCO5)CC3)[nH]c2cc1OC,"inconclusive: 29.1 µM [falling, single point]",
COc1ccc(NS(=O)(=O)c2ccc(C)c(C(=O)O)c2)cc1,,inactive: 2.78%
Cc1sc2ncn(CC(=O)N3CCN(c4ccc(F)cc4)CC3)c(=O)c2c1S(=O)(=O)N1CCCCC1,,inactive: 4.57% [at 9.27 µM]
COc1ccccc1NC(=S)N=Nc1c(O)[nH]c2ccc(Br)cc12,"inconclusive: 32.6 µM [falling, single point]",
CCc1cccc(CC)c1NC(=O)COC(=O)CC1c2ccccc2CCN1S(=O)(=O)c1ccc(F)cc1 (centres undefined),,inactive: -5.89%
Cc1ccc(Nc2nc3c(S(=O)(=O)c4ccccc4)nnn3c3ccsc23)c(C)c1,,inactive: -1.3%
Cc1cccc2sc(N(CCCN(C)C)C(=O)c3ccc(Cl)s3)nc12,"inactive and inconclusive: 11.6 µM [activator, partial curve]",
C=CCn1c(SCC(=O)Nc2ncc(Cc3ccc(C)c(Cl)c3)s2)nnc1-c1ccncc1,"inconclusive: 18.4 µM [falling, single point]",
CC(C)C(=O)Nc1ccc2nn(-c3ccc(F)cc3)nc2c1,"inconclusive: 1.46 µM [activator, full curve, poor fit]",
CCC(=O)N1CCCc2cc(S(=O)(=O)N3CCN(c4ccccn4)CC3)ccc21,"inconclusive: 23.1 µM [falling, single point]",
Cc1cccc(NC(=O)Cn2nnc(C(=O)Nc3ccc(F)c(Cl)c3)c2N)c1,"inconclusive: 8.2 µM [activator, partial curve, poor fit] and inconclusive: 16.4 µM [activator, single point]",
COc1ccc(-c2nc(-c3ccncc3)no2)c(OC)c1,"inconclusive: 1.64 µM [activator, full curve]",
Cc1ccc(S(=O)(=O)N[C@H](C(=O)OCC(=O)NC(=O)NCc2ccco2)C(C)C)cc1,"inconclusive: 29.1 µM [falling, single point]",
O=C(Nc1cccc(Br)c1)c1cc(S(=O)(=O)N2CCOCC2)cs1,"inconclusive: 32.6 µM [falling, single point]",
CCOC(=O)Cc1csc(NC(=O)Nc2cccc(Cl)c2)n1,"inconclusive: 29.1 µM [falling, single point]",
COc1ccccc1/C=C1\SC(=S)N(CCC(=O)NCCCN2CCOCC2)C1=O,"inconclusive: 29.1 µM [activator, single point]",
CCC(C)C(=O)Nc1nc2ccc(S(C)(=O)=O)cc2s1 (centres undefined),"inconclusive: 10.3 µM [activator, partial curve]",
COc1ccc2oc(-c3cccc(NC(=O)c4ccc(C#N)cc4F)c3)nc2c1,,inactive: -29.6%
O=C(CSc1nnc(-c2ccncc2)o1)N1CCc2ccccc2C1,"inconclusive: 18.4 µM [falling, single point]",
CCCCNC(=O)c1ccc2c(c1)NC(=O)C(CS(=O)(=O)Cc1cccc(C)c1)N2 (centres undefined),"inconclusive: 23.1 µM [activator, partial curve]",
